No constants are given. Whether binding was seen depends on the method and setting. Some results given as binding are weak or reduced against the parent protein; the word gives no strength.
What was measured:
Recombinant human IGFBP3 [1] = target: T1, Recombinant human IGFBP3 (human, UniProt P17936 28-291); assay: ELISA: plate coated with rhIGFBP3 4 µg/ml; ecto-TMEM219 10 µg/ml; detection anti-HisTag HRP
Recombinant human IGFBP3 [2] = target: T1, Recombinant human IGFBP3; assay: sandwich ELISA: plate coated with LSBio LS-C45037 anti-IGFBP3 mAb; premix of IGFBP3 and ecto-TMEM219 1:1 added; bound ecto-TMEM219 detected through its His tag

Protein sequences, listed by entry. Tags and fused reporters are not part of them. Residues count along the entry.
UniProt P17936, residues 28-291: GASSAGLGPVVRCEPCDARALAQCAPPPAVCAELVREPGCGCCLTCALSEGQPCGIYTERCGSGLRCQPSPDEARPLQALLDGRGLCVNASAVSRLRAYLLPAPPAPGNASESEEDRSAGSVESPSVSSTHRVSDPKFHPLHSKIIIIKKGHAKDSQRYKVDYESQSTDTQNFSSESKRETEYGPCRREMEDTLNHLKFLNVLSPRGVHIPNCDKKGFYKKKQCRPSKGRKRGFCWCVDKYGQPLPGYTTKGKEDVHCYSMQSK

binding (Recombinant human IGFBP3 [1]): binds | binding (Recombinant human IGFBP3 [2]): binds
B1: ecto-TMEM219 (receptor)
chain: THRTGLRSPDIPQDWVSFLRSFGQLTLCPRNGTVTGKWRGSHVVGLLTTLNFGDGPDRNKTRTFQATVLGSQMGLKGSSAGQLVLITARVTTERTAGTCLYFSAVPGILPSSQPPISCSEEGAGNATLSPRMGEECVSVWSHEGLVLTKLLTSEELALCGSR
notes: it is put last here only for want of better knowledge; also called EctoTMEM-His; extracellular domain of TMEM219; not shown: His tag (detected with anti 6xHis tag HRP)

From patent publication US20250270306A1 (OSPEDALE SAN RAFFAELE S R L, published 2025)
